We go through one molecule from publication PMC10188538.

For this assay, the target named is bacterially expressed glutathione S-transferase (GST)-GEF-H1 (amino acid 623-684) (human). In words: pull-down; bacterially expressed GST-GEF-H1 (amino acids 623-684) with cell free translated HUNK; only the target purified.

No constants are given. Whether binding was seen depends on the method and setting. Binding seen in cells or lysates may run through a third protein. A result given as binding can be weak or reduced; the word gives no strength.

B1: cell free translated HUNK (enzyme, UniProt P57058 1-714)
chain: MPAAAGDGLLGEPAAPGGGGGAEDAARPAAACEGSFLPAWVSGVPRERLRDFQHHKRVGNYLIGSRKLGEGSFAKVREGLHVLTGEKVAIKVIDKKRAKKDTYVTKNLRREGQIQQMIRHPNITQLLDILETENSYYLVMELCPGGNLMHKIYEKKRLEESEARRYIRQLISAVEHLHRAGVVHRDLKIENLLLDEDNNIKLIDFGLSNCAGILGYSDPFSTQCGSPAYAAPELLARKKYGPKIDVWSIGVNMYAMLTGTLPFTVEPFSLRALYQKMVDKEMNPLPTQLSTGAISFLRSLLEPDPVKRPNIQQALANRWLNENYTGKVPCNVTYPNRISLEDLSPSVVLHMTEKLGYKNSDVINTVLSNRACHILAIYFLLNKKLERYLSGKSDIQDSLCYKTRLYQIEKYRAPKESYEASLDTWTRDLEFHAVQDKKPKEQEKRGDFLHRPFSKKLDKNLPSHKQPSGSLMTQIQNTKALLKDRKASKSSFPDKDSFGCRNIFRKTSDSNCVASSSMEFIPVPPPRTPRIVKKPEPHQPGPGSTGIPHKEDPLMLDMVRSFESVDRDDHVEVLSPSHHYRILNSPVSLARRNSSERTLSPGLPSGSMSPLHTPLHPTLVSFAHEDKNSPPKEEGLCCPPPVPSNGPMQPLGSPNCVKSRGRFPMMGIGQMLRKRHQSLQPSADRPLEASLPPLQPLAPVNLAFDMADGVKTQC
For B1, the binding entry was “binds”.
